From the supplement of paper PMC10849652
This is one part of the list.

Amino acid sequences for entries named in this document (tags omitted). A change or cut given only in a name is not applied to a line headed by its entry.
UniProt Q5HYI8: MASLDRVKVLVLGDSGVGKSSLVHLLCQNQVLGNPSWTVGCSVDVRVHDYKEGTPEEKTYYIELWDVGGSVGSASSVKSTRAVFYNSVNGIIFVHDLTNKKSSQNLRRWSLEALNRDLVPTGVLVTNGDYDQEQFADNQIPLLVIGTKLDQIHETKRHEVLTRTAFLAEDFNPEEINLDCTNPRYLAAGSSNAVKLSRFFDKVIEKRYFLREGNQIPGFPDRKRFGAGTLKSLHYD
UniProt P47224: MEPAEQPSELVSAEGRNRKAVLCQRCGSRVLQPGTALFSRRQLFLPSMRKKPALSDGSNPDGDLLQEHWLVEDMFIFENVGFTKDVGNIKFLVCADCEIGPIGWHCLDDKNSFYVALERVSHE
UniProt Q15771: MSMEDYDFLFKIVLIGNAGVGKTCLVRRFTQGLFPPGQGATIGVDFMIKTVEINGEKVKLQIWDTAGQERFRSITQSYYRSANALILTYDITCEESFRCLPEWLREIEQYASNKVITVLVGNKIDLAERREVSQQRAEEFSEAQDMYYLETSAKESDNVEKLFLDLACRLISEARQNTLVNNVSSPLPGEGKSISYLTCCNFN
UniProt P61224: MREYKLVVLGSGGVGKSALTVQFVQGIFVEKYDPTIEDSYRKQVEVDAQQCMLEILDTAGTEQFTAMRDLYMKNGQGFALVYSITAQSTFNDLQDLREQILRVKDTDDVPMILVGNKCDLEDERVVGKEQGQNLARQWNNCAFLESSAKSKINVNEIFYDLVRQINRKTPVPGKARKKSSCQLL
UniProt Q9H0U4: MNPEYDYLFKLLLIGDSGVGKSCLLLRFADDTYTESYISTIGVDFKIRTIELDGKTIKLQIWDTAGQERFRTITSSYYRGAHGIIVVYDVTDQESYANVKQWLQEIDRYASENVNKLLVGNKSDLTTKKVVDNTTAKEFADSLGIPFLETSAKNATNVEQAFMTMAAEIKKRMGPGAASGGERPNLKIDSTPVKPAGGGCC
UniProt P06400: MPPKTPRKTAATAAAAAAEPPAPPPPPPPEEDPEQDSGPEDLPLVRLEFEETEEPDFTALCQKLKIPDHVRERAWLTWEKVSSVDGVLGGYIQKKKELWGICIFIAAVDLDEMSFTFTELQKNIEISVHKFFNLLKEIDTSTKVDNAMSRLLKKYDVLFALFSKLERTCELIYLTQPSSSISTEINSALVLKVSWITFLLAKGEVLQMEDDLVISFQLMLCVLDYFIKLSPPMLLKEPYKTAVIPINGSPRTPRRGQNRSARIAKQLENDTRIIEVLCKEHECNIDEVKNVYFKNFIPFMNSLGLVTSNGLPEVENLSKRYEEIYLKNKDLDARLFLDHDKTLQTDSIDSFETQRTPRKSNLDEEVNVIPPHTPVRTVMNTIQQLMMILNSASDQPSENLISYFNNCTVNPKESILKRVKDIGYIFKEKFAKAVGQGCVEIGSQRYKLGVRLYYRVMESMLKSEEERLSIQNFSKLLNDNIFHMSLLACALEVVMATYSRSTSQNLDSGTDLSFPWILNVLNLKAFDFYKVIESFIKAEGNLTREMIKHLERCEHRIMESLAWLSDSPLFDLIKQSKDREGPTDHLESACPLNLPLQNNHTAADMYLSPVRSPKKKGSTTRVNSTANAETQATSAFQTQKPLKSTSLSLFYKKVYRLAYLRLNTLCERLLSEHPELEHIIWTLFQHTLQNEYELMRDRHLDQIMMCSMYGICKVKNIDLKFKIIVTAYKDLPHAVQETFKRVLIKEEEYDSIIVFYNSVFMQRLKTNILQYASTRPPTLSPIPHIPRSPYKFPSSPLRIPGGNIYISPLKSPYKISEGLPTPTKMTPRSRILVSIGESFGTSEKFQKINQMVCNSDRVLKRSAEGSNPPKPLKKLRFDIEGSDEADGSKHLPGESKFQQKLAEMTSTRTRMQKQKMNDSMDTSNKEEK
UniProt Q9Y3P9: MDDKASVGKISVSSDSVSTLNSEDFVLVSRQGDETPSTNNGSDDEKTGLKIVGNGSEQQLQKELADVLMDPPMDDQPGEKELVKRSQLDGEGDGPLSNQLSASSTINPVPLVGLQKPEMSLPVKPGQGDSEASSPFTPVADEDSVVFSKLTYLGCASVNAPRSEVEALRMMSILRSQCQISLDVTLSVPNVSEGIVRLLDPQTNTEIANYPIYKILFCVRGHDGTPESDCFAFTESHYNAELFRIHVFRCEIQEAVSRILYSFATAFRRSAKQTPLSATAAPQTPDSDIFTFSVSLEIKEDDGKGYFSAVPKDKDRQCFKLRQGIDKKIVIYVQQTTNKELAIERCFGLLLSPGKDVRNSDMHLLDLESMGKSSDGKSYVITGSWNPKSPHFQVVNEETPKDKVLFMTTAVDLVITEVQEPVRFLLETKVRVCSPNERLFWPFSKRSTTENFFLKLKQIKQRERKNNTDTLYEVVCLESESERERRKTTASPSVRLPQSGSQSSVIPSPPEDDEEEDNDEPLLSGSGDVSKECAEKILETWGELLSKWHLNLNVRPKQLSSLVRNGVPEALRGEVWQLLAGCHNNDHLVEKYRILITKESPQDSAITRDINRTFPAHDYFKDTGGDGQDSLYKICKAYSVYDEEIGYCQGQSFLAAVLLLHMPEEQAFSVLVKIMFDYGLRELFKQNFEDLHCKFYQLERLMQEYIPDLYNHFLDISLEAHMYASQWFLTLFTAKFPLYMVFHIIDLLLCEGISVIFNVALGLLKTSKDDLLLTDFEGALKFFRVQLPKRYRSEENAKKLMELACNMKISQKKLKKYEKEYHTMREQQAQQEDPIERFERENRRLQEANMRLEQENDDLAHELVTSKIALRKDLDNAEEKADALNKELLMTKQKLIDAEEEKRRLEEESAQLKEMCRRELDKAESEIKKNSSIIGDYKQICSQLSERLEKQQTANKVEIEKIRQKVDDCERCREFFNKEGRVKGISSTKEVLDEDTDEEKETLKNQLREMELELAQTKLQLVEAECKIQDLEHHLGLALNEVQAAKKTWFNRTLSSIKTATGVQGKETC
UniProt Q86YS6: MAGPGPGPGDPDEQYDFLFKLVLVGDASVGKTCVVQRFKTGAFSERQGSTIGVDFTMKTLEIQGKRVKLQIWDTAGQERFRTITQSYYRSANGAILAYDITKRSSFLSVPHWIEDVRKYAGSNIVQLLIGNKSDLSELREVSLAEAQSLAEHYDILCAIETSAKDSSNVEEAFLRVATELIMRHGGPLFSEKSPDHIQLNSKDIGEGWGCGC
UniProt O15315: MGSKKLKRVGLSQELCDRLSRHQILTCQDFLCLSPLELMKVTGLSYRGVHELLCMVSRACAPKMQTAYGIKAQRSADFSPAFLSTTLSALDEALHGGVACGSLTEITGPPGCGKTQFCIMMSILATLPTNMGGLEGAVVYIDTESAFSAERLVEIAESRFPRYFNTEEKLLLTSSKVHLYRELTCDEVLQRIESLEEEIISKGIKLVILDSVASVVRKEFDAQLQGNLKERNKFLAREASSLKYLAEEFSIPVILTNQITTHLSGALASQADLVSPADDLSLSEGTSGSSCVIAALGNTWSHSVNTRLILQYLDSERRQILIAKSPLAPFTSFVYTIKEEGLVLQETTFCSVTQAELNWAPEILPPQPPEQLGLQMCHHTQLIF
UniProt Q6VN20, whole entry, looked up: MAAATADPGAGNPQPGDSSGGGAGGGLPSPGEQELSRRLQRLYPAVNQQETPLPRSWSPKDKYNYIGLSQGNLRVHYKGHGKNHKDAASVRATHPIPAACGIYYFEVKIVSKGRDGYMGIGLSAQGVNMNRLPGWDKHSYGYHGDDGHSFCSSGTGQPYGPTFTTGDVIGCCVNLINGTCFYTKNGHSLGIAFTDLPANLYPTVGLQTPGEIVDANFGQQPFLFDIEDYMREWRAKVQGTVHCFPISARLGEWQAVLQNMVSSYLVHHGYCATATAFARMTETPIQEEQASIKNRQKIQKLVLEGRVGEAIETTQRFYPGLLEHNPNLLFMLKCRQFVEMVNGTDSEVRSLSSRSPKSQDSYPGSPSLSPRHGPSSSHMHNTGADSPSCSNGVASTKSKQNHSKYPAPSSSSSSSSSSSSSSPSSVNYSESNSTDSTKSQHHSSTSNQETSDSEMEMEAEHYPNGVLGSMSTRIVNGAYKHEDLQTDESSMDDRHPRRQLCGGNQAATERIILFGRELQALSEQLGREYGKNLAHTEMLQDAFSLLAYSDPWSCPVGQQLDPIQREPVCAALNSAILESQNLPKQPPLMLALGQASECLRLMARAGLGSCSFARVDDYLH
UniProt P51148: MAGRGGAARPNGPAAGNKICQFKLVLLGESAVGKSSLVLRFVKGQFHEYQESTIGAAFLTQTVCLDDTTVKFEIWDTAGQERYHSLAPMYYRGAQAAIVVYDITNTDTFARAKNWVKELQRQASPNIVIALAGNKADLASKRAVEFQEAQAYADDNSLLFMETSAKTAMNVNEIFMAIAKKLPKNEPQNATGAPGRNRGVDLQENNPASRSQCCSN
UniProt Q9NRW1: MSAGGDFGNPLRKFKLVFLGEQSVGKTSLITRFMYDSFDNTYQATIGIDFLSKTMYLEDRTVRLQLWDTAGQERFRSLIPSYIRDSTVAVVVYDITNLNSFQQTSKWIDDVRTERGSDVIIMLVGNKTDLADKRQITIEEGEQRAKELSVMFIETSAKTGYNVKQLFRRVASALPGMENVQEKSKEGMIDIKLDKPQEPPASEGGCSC
UniProt Q96I25: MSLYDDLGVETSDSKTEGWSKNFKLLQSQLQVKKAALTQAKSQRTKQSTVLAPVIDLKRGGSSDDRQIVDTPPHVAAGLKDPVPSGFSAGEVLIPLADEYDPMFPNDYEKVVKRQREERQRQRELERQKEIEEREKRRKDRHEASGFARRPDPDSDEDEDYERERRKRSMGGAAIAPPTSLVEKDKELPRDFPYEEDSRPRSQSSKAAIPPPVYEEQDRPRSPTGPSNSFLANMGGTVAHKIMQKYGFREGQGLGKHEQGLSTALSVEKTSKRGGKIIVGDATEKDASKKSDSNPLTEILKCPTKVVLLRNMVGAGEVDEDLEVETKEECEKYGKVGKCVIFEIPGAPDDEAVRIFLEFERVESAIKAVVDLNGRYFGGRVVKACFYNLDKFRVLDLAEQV

How the values were obtained:
Assay in all cases: log2 fold change, soluble protein after heating vs DMSO (PISA); higher = thermal stabilisation; K562 cells, 10 uM, 30 min; active = over 0.2 and 3.5 SD of the protein, either way, in both replicates (recomputed)
[1] = compound: CC[C@@H]1C(=O)N(C)c2cnc(Nc3ccc(C(=O)NC4CCN(C)CC4)cc3OC)nc2N1C1CCCC1
How it was run: (§1)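 Soluble protein was quantified by TMTpro 16plex LC-MS/MS after channel sums were equalised. It was obtained as the supernatant after 21,000xg for 90 min from pooled aliquots of K562 cells (2×10^6 cells/mL, 10 μM compound, 30 min) heated for 3 min across 48°C-58°C and extracted in PBS with 0.5% NP-40 at 4°C. Thermal stability values are relative to control samples and come from duplicates. They are given as log2 fold changes.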

[2] = compound: CC[C@@H]1C(=O)N(C)c2cnc(Nc3ccc(C(=O)N[C@H]4CC[C@H](N5CCN(CC6CC6)CC5)CC4)cc3OC)nc2N1C(C)C [volasertib]
How it was run: as §1

[3] = compound: CC[C@H](C)N1C=C(C2=C(C=C(C=C21)C3=CN=C(C=C3)N4CCNCC4)C(=O)NCC5=C(C=C(NC5=O)C)C)C
How it was run: as §1

[4] = compound: CC[C@H](C)[C@@H](C(=O)N[C@@H]([C@@H](C)O)C(=O)N[C@@H](CC(C)C)C(=O)[C@]1(CO1)C)NC(=O)[C@H]([C@@H](C)CC)N(C)C(=O)C [epoxomicin]
How it was run: as §1

[5] = compound: CCn1c(C(=O)N(C2CC2)C2CC2)cc2c3c(ncn3C)c(Nc3cc(C)n(C)n3)nc21
How it was run: as §1

[6] = compound: CCn1cc(-c2ccnc3[nH]c(-c4cccc(CN(C)C)c4)cc23)c(-c2ccc(NC(=O)N(C)C)cc2)n1
How it was run: as §1

[7] = compound: CN(C)CC(=O)Nc1ccc2[nH]c(=O)c3ccccc3c2c1
How it was run: as §1

[8] = compound: CN(CCOC1=CC=C(C=C1)C[C@H]2C(=O)NC(=O)S2)C3=CC=CC=N3 (racemic) [rosiglitazone]
How it was run: as §1

[9] = compound: CN1C2=C(C3=C1C(=O)N(N=C3)CC4=CC(=CC=C4)N)SC(=C2)S(=O)C
How it was run: as §1

[10] = compound: CN1CCC(CNc2ccc3ncc(-c4cccc(OC(F)(F)F)c4)n3n2)CC1
How it was run: as §1

| Target | log2 fold change [1] | log2 fold change [2] | log2 fold change [3] | log2 fold change [4] | log2 fold change [5] | log2 fold change [6] | log2 fold change [7] | log2 fold change [8] | log2 fold change [9] | log2 fold change [10] |
| --- | --- | --- | --- | --- | --- | --- | --- | --- | --- | --- |
| RABL3 (UniProt Q5HYI8) | inactive: -0.063 | inactive: -0.011 | inactive: 0.01 | inactive: 0.035 | inactive: 0.04 | inactive: -0.016 | inactive: -0.046 | inactive: 0.028 | inactive: -0.099 | inactive: -0.1 |
| RABIF (UniProt P47224) | inactive: 0 | inactive: -0.047 | inactive: -0.001 | inactive: 0.093 | inactive: 0.022 | inactive: 0.006 | inactive: -0.083 | inactive: -0.062 | inactive: -0.023 | inactive: 0.072 |
| RAB30 (UniProt Q15771) | inactive: 0.073 | inactive: 0.065 | inactive: -0.042 | inactive: -0.067 | inactive: 0.043 | inactive: 0.104 | inactive: -0.05 | inactive: -0.038 | inactive: 0.067 | inactive: 0.158 |
| RAP1B (UniProt P61224) | inactive: 0.013 | inactive: 0.067 | inactive: -0.029 | inactive: 0.068 | inactive: 0.016 | inactive: 0.052 | inactive: 0.002 | inactive: 0.006 | inactive: -0.031 | inactive: 0.15 |
| RAB1B (UniProt Q9H0U4) | inactive: -0.015 | inactive: 0.063 | inactive: -0.087 | inactive: -0.004 | inactive: 0.023 | inactive: -0.006 | inactive: -0.039 | inactive: 0.058 | inactive: -0.075 | inactive: 0.054 |
| RB1 (UniProt P06400) | inactive: 0.018 | inactive: 0.034 | inactive: 0.016 | inactive: 0.041 | – | inactive: -0.05 | inactive: 0.008 | – | inactive: -0.064 | active: -0.265 |
| RABGAP1L isoform 3 (UniProt Q5R372) | inactive: -0.046 | inactive: -0.107 | inactive: 0.053 | inactive: 0.08 | – | inactive: -0.034 | inactive: -0.011 | – | inactive: 0.02 | inactive: 0.025 |
| RABGAP1 (UniProt Q9Y3P9) | inactive: -0.016 | inactive: -0.108 | inactive: 0.049 | inactive: 0.042 | inactive: -0.017 | inactive: -0.076 | inactive: -0.008 | inactive: 0.011 | inactive: 0.018 | inactive: -0.028 |
| RAB43 (UniProt Q86YS6) | inactive: 0.104 | inactive: 0.006 | inactive: -0.064 | inactive: 0.022 | inactive: -0.025 | inactive: -0.078 | inactive: -0.07 | inactive: 0.014 | inactive: -0.043 | inactive: 0.038 |
| RAD51B (UniProt O15315) | inactive: 0.134 | inactive: 0.056 | inactive: 0.117 | inactive: -0.057 | inactive: 0.064 | inactive: -0.152 | – | inactive: -0.116 | inactive: -0.085 | inactive: -0.131 |
| RANBP10 (UniProt Q6VN20) | inactive: 0.021 | inactive: -0.063 | inactive: -0.002 | inactive: 0.112 | inactive: -0.092 | inactive: -0.071 | inactive: 0.024 | inactive: 0.113 | – | inactive: -0.016 |
| RAB5C isoform 2 (UniProt P51148) | inactive: 0.004 | inactive: 0.045 | inactive: -0.024 | inactive: 0 | – | inactive: -0.002 | inactive: 0 | – | inactive: -0.032 | inactive: 0.018 |
| RAB6B (UniProt Q9NRW1) | inactive: 0.04 | inactive: 0.096 | inactive: -0.056 | inactive: -0.062 | inactive: 0.045 | inactive: 0 | inactive: -0.028 | inactive: 0.009 | inactive: -0.046 | inactive: 0.075 |
| RBM17 (UniProt Q96I25) | inactive: -0.08 | active: -0.422 | inactive: 0.085 | inactive: 0.066 | – | inactive: -0.059 | inactive: 0.048 | – | inactive: 0.088 | inactive: -0.037 |

Single records, as listed above. Values in the order: log2 fold change [1] | log2 fold change [2] | log2 fold change [3] | log2 fold change [4] | log2 fold change [5] | log2 fold change [6] | log2 fold change [7] | log2 fold change [8] | log2 fold change [9] | log2 fold change [10]
RB1 (UniProt P06400) as listed: inactive: 0.018 | inactive: 0.034 | inactive: 0.016 | inactive: 0.041 | – | inactive: -0.05 | inactive: 0.008 | – | inactive: -0.064 | active: -0.265
RAB6B (UniProt Q9NRW1) as listed: inactive: 0.04 | inactive: 0.096 | inactive: -0.056 | inactive: -0.062 | inactive: 0.045 | inactive: 0 | inactive: -0.028 | inactive: 0.009 | inactive: -0.046 | inactive: 0.075
